In the supplement of paper PMC10849652:
The list shows a part of the results.

Protein sequences, listed by entry. Tags and fused reporters are not part of them. Lines headed by an entry give the natural chain unless they say otherwise; changes in a name come on top.
UniProt Q9ULC4: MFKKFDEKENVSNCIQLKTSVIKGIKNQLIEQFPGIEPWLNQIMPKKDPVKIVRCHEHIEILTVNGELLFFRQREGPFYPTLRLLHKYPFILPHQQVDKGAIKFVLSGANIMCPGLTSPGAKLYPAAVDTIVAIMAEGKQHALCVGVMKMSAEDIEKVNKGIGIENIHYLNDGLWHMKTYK
UniProt Q9BUT9: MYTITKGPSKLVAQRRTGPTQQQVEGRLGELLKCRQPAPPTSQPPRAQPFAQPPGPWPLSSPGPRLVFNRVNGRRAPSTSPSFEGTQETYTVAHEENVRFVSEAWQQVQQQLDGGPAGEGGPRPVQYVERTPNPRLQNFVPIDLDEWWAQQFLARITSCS
UniProt Q14703: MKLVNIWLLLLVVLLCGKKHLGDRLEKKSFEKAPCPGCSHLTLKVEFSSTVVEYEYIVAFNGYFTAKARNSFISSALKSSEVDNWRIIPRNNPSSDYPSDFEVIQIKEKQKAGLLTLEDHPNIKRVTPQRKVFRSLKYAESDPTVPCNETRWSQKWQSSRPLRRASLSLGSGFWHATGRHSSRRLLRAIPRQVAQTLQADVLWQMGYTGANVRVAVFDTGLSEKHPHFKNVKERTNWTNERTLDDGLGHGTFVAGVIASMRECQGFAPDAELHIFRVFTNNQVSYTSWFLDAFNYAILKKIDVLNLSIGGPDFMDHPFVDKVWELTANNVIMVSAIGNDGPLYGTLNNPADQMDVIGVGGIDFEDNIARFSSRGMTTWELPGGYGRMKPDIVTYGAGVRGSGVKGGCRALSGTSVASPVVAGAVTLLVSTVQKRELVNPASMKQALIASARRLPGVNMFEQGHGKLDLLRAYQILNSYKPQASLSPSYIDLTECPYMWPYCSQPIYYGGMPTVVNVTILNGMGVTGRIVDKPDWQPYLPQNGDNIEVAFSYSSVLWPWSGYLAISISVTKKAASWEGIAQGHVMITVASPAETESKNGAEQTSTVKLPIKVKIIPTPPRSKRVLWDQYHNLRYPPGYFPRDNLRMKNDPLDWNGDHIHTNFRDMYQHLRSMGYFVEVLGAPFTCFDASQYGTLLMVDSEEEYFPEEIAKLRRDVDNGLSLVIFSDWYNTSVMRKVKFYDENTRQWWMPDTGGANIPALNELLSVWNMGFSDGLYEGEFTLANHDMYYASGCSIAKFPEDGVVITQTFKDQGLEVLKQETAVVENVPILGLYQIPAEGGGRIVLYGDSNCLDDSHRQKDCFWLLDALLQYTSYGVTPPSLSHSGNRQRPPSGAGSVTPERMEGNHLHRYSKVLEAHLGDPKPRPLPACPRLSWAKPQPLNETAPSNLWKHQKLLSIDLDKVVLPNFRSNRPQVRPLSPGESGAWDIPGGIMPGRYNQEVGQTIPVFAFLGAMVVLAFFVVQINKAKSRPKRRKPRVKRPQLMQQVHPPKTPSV
UniProt Q6UB28: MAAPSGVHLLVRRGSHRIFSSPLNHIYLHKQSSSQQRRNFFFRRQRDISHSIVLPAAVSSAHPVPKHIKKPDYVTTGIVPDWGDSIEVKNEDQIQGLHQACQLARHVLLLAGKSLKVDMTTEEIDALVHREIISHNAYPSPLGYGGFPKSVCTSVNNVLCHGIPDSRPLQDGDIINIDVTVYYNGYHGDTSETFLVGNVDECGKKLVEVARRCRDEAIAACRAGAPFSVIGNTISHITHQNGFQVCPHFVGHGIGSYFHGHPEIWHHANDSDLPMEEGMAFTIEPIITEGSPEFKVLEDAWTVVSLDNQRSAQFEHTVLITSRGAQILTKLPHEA
UniProt Q9UBP6: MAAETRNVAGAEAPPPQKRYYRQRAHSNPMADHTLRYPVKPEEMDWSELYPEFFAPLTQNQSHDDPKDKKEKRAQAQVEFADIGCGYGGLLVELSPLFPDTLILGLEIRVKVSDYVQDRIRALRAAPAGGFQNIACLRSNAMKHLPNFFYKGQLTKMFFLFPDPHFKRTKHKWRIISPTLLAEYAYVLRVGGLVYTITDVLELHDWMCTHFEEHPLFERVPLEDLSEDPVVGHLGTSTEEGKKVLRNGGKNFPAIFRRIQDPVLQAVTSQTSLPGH
UniProt Q9Y4C4: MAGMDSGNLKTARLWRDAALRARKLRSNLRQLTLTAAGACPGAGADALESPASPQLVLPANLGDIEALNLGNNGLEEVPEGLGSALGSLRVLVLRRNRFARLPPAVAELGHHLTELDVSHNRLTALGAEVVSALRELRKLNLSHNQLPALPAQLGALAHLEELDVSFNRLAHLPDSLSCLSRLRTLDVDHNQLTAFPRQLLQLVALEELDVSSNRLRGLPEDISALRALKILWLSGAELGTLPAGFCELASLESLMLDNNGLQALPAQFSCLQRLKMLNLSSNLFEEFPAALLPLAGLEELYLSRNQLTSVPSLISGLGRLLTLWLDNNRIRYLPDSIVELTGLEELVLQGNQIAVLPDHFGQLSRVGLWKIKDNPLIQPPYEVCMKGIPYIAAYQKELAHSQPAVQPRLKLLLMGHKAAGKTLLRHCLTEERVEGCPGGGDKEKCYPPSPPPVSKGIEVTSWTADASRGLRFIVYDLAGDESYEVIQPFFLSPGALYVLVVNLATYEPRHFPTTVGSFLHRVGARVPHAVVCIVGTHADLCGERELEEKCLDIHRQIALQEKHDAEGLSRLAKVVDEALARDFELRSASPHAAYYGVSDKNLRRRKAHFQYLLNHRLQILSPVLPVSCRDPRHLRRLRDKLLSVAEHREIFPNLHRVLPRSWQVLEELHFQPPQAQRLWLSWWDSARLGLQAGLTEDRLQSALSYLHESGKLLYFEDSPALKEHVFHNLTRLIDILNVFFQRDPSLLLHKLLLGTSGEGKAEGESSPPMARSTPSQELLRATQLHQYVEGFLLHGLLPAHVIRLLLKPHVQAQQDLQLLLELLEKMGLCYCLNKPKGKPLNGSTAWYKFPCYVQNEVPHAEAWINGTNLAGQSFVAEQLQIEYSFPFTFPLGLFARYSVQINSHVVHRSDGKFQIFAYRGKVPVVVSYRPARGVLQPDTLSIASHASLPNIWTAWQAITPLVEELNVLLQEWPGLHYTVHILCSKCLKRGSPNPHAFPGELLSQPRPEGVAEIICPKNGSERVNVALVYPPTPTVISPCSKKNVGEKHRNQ
UniProt O95983: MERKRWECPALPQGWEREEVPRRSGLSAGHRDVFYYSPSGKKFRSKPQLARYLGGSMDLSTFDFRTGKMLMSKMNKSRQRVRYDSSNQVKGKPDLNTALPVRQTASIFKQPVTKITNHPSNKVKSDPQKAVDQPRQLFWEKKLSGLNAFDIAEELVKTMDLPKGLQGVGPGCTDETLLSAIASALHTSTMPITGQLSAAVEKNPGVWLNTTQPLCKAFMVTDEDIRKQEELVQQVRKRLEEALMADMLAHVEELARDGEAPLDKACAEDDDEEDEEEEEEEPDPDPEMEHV
UniProt Q9NRN9: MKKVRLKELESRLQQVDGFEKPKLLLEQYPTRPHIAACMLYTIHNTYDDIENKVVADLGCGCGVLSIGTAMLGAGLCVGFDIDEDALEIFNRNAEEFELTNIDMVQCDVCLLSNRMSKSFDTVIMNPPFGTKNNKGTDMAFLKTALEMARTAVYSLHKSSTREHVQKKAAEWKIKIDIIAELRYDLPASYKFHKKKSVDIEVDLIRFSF
UniProt Q9Y6X3: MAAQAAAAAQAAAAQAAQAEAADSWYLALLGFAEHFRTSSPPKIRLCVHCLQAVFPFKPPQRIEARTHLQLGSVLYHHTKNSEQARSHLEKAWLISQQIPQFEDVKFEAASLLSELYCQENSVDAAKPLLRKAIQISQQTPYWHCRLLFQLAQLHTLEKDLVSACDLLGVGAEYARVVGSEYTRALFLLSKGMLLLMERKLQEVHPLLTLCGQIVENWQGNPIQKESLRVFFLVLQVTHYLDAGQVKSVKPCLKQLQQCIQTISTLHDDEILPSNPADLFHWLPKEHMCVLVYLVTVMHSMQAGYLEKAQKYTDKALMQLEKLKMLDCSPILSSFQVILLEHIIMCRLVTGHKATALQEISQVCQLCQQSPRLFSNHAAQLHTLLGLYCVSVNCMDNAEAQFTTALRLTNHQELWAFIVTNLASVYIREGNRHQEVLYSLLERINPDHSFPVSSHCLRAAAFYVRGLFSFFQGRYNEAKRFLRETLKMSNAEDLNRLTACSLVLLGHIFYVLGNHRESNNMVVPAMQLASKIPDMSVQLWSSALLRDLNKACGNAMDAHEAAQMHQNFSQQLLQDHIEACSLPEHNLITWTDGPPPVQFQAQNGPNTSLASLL
UniProt Q00987, whole entry, looked up: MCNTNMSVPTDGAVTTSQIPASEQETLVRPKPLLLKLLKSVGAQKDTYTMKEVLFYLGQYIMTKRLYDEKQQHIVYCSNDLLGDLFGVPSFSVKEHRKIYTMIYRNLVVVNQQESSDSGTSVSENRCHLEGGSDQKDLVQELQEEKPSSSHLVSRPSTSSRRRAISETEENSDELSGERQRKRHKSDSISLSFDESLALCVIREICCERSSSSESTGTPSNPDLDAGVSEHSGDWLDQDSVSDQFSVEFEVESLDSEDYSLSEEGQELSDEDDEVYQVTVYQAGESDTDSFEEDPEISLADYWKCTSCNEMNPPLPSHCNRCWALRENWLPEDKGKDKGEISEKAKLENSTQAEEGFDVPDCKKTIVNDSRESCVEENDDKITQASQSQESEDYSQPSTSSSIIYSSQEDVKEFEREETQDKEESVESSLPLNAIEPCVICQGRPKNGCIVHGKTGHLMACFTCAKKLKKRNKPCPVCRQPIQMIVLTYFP
UniProt Q6NUT3: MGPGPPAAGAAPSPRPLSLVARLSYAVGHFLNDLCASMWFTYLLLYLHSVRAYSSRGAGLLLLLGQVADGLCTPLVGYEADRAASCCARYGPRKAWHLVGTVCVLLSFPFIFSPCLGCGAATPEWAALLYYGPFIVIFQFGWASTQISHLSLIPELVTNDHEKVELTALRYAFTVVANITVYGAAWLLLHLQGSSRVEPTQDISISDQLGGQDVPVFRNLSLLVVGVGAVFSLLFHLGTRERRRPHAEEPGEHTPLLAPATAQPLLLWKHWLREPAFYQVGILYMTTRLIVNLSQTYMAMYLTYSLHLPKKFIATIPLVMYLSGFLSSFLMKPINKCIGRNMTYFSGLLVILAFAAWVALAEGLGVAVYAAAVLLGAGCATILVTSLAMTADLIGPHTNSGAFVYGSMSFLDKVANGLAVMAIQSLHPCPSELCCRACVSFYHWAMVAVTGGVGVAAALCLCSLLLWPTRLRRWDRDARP
UniProt P43121, whole entry, looked up: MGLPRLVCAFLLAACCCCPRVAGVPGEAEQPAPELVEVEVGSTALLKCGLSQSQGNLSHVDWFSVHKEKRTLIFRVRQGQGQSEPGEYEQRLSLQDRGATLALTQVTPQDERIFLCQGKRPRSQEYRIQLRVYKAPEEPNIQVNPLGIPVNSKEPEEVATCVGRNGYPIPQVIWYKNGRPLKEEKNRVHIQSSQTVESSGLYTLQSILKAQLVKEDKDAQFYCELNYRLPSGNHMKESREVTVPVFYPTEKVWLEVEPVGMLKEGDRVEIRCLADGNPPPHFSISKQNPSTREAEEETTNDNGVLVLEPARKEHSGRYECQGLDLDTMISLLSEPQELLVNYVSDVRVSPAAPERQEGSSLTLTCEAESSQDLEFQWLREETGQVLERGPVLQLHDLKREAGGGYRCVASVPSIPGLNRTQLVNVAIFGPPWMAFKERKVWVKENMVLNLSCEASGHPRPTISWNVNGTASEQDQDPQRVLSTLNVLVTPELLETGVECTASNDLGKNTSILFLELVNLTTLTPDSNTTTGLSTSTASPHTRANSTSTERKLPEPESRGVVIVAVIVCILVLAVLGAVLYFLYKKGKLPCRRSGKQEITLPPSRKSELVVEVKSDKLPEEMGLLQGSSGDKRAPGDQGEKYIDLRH
UniProt Q14680: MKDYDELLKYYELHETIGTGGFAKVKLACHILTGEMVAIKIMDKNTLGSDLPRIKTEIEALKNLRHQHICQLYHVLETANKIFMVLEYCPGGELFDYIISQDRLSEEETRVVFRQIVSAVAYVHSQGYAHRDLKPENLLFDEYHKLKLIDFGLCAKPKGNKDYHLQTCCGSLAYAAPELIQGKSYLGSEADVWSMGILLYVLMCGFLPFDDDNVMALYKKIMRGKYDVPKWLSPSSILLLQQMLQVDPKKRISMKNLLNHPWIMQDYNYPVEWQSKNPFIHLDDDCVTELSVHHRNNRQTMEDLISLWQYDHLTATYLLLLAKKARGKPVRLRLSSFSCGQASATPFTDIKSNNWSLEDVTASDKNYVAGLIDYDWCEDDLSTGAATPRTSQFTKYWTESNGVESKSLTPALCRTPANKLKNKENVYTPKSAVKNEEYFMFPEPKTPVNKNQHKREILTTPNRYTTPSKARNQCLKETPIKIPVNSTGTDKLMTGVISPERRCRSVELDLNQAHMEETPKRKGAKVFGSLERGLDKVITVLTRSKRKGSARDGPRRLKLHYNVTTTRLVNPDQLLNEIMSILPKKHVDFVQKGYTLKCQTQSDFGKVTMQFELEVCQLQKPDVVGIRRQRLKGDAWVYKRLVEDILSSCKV

Legend:
Experiment in all cases: log2 fold change, soluble protein after heating vs DMSO (PISA); higher = thermal stabilisation; K562 lysate, 10 uM; active = over 0.2 and 3.5 SD of the protein, either way, in both replicates (recomputed)
erlotinib = compound: C#Cc1cccc(Nc2ncnc3cc(OCCOC)c(OCCOC)cc23)c1 [erlotinib]
In short: (§1)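 Following dounce homogenisation of K562 pellets in PBS pH 7.4 with 1 mM MgCl2, crude extract at 1 mg/mL protein was incubated for 30 min with 10 μM compound. Aliquots were then heated for 3 min over 48°C-58°C and pooled, NP-40 was added to 0.5% at 4°C, and soluble protein was recovered as the supernatant at 21,000xg for 90 min. Channel-sum-equalised TMTpro 16plex LC-MS/MS quantified this protein. Each value, from duplicates, is a log-two fold change in thermal stability relative to solvent controls.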

[1] = compound: C/C(=N\NC(=O)C1=CC(=CC=C1)S(=O)(=O)N2CCOCC2)/C3=C(C=CC(=C3)Cl)O
In short: as §1

[2] = compound: C1=CC(=CC=C1C2=NC3=C(N2)C=C(C=C3)C(=O)N)OC4=CC=C(C=C4)Cl
In short: as §1

[3] = compound: C1=CC2=C(C=CC(=C2)/C=C\3/C(=O)NC(=NCC4=CC=CS4)S3)N=C1
In short: as §1

[4] = compound: C1=CC2=NC=CN=C2C=C1/C=C/3\C(=O)NC(=O)S3
In short: as §1

[5] = compound: C1=CC=C(C=C1)C2=NC(=C(N2)C3=CC=NC=C3)C4=CC(=C(C=C4)Cl)O
In short: as §1

[6] = compound: C1=CC=C2C(=C1)C3=NNC4=CC=CC(=C43)C2=O
In short: as §1

[7] = compound: C1CCN(C1)C(=O)NC2=CC=CC(=C2)NC3=NC=C(C(=N3)NCCC4=CN=CN4)Br
In short: as §1

[8] = compound: C1CN(CCC1(CC2=CC=C(C=C2)Cl)N)C3=NC=NC4=C3C=CN4
In short: as §1

IRAK-1-4 Inhibitor I = compound: C1COCCN1CCN2C3=CC=CC=C3N=C2NC(=O)C4=CC(=CC=C4)[N+](=O)[O-] [IRAK-1-4 Inhibitor I]
In short: as §1

Measured: log2 fold change

MBNL1 isoform 5 (UniProt Q9NR56)
inactive: erlotinib -0.014 | [1] -0.043 | [2] 0.051 | [3] -0.009 | [4] -0.023 | [5] -0.025 | [6] 0.04 | [7] -0.027 | [8] -0.02 | IRAK-1-4 Inhibitor I 0.011

MCTS1 isoform 3 (UniProt Q9ULC4)
inactive: erlotinib -0.016 | [1] 0.028 | [2] 0.035 | [3] -0.006 | [4] -0.007 | [5] -0.01 | [6] 0.025 | [7] 0.019 | [8] 0.004 | IRAK-1-4 Inhibitor I 0.016

MEMO1 (UniProt Q9Y316)
inactive: erlotinib 0.006 | [1] 0.036 | [2] 0.035 | [3] 0.023 | [4] 0.035 | [5] 0.004 | [6] -0.048 | [7] -0.021 | [8] 0.035 | IRAK-1-4 Inhibitor I -0.014

MEA1 (UniProt Q16626)
inactive: erlotinib -0.015 | [1] -0.051 | [2] 0.008 | [3] -0.011 | [4] -0.08 | [5] -0.043 | [6] 0.009 | [7] 0.004 | [8] 0.007 | IRAK-1-4 Inhibitor I -0.028

MCMBP isoform 2 (UniProt Q9BTE3)
inactive: erlotinib 0.084 | [1] 0.027 | [2] 0.282 | [3] -0.168 | [4] -0.156 | [5] -0.051 | [6] -0.411 | [7] 0.024 | [8] 0.055 | IRAK-1-4 Inhibitor I -0.016

MCRIP2 (UniProt Q9BUT9)
inactive: erlotinib -0.038 | [1] -0.036 | [2] 0.109 | [3] -0.01 | [4] -0.041 | [5] 0.057 | [6] -0.005 | [7] 0.051 | [8] 0.03 | IRAK-1-4 Inhibitor I 0.013

METTL3 (UniProt Q86U44)
inactive: erlotinib -0.014 | [1] -0.082 | [2] 0.016 | [3] 0.024 | [4] -0.021 | [5] 0.005 | [6] -0.026 | [7] -0.028 | [8] 0 | IRAK-1-4 Inhibitor I 0.014

MEPCE (UniProt Q7L2J0)
inactive: erlotinib 0 | [1] 0.024 | [2] 0.005 | [3] 0.016 | [4] -0.045 | [5] -0.008 | [6] 0.022 | [7] 0.011 | [8] -0.025 | IRAK-1-4 Inhibitor I -0.038

MDM1 (UniProt Q8TC05)
inactive: erlotinib -0.018 | [1] -0.105 | [2] -0.036 | [3] -0.066 | [5] -0.054 | [6] -0.041 | [7] -0.05 | [8] -0.075 | IRAK-1-4 Inhibitor I -0.043

MBTPS1 (UniProt Q14703)
inactive: erlotinib 0.033 | [1] -0.022 | [2] -0.044 | [3] -0.009 | [4] -0.053 | [5] 0.029 | [6] -0.014 | [7] -0.029 | [8] 0.131 | IRAK-1-4 Inhibitor I -0.026

METAP1D (UniProt Q6UB28)
inactive: erlotinib 0.083 | [1] -0.183 | [2] -0.068 | [3] 0.043 | [4] 0.006 | [5] 0.01 | [6] 0.039 | [7] 0.026 | [8] 0.001 | IRAK-1-4 Inhibitor I -0.007

MCAT (UniProt Q8IVS2)
inactive: erlotinib -0.086 | [1] 0.032 | [2] 0.007 | [3] -0.001 | [4] -0.005 | [5] -0.035 | [6] 0.018 | [7] 0.001 | [8] 0.021 | IRAK-1-4 Inhibitor I -0.01

METTL1 (UniProt Q9UBP6)
inactive: erlotinib -0.062 | [1] -0.049 | [2] -0.003 | [3] -0.002 | [4] -0.024 | [5] -0.003 | [6] 0.027 | [7] 0.022 | [8] -0.01 | IRAK-1-4 Inhibitor I 0.003

MFHAS1 (UniProt Q9Y4C4)
inactive: erlotinib -0.111 | [1] 0.02 | [2] -0.056 | [3] 0.148 | [4] 0.041 | [5] -0.047 | [6] -0.077 | IRAK-1-4 Inhibitor I 0.05

MEAF6 isoform 3 (UniProt Q9HAF1)
inactive: erlotinib -0.031 | [1] 0.021 | [2] -0.008 | [3] -0.034 | [4] -0.021 | [5] -0.039 | [6] 0.039 | [7] -0.026 | [8] 0.028 | IRAK-1-4 Inhibitor I 0.02

MBD3 (UniProt O95983)
inactive: erlotinib -0.017 | [1] 0.146 | [2] -0.003 | [3] 0.051 | [4] -0.012 | [5] -0.033 | [6] 0 | [7] -0.011 | [8] -0.045 | IRAK-1-4 Inhibitor I -0.028

METTL5 (UniProt Q9NRN9)
inactive: erlotinib -0.023 | [1] 0.031 | [2] 0.034 | [3] -0.018 | [4] 0.004 | [5] -0.036 | [6] 0.045 | [7] 0.017 | [8] -0.038 | IRAK-1-4 Inhibitor I 0.037

METTL18 (UniProt O95568)
inactive: erlotinib 0.004 | [1] 0.036 | [2] 0.047 | [3] 0.025 | [4] 0.034 | [5] 0.049 | [6] -0.013 | [7] -0.15 | [8] 0.026 | IRAK-1-4 Inhibitor I -0.029

2 consecutive entries already listed, for reference:
MEAF6 isoform 3 (UniProt Q9HAF1)
inactive: erlotinib -0.031 | [1] 0.021 | [2] -0.008 | [3] -0.034 | [4] -0.021 | [5] -0.039 | [6] 0.039 | [7] -0.026 | [8] 0.028 | IRAK-1-4 Inhibitor I 0.02

MBD3 (UniProt O95983)
inactive: erlotinib -0.017 | [1] 0.146 | [2] -0.003 | [3] 0.051 | [4] -0.012 | [5] -0.033 | [6] 0 | [7] -0.011 | [8] -0.045 | IRAK-1-4 Inhibitor I -0.028

Carrying on.

MECR (UniProt Q9BV79)
inactive: erlotinib -0.019 | [1] 0.027 | [2] -0.005 | [3] -0.028 | [4] 0.012 | [5] -0.038 | [6] -0.035 | [7] -0.053 | [8] 0.079 | IRAK-1-4 Inhibitor I 0.025

MAU2 (UniProt Q9Y6X3)
inactive: erlotinib 0.102 | [1] -0.087 | [2] 0.027 | [3] 0.037 | [4] -0.107 | [5] -0.038 | [6] -0.067 | [7] -0.02 | [8] 0.011 | IRAK-1-4 Inhibitor I -0.044

MCM3 isoform 2 (UniProt P25205)
inactive: erlotinib 0.005 | [1] 0.013 | [2] 0 | [3] 0.002 | [4] 0.011 | [5] 0.003 | [6] 0.013 | [7] 0.011 | [8] 0.015 | IRAK-1-4 Inhibitor I -0.016

MED23 (UniProt Q9ULK4)
inactive: erlotinib -0.009 | [1] -0.036 | [2] 0.014 | [3] -0.022 | [4] -0.01 | [5] -0.028 | [6] -0.001 | [7] -0.046 | [8] 0.019 | IRAK-1-4 Inhibitor I -0.012

MDM2 isoform 11 (UniProt Q00987)
inactive: erlotinib 0.108 | [1] -0.039 | [2] 0.037 | [3] -0.071 | [4] 0.021 | [5] 0.084 | [6] 0.04 | IRAK-1-4 Inhibitor I 0.151

MFSD12 isoform 3 (UniProt Q6NUT3)
inactive: erlotinib 0.029 | [1] 0.047 | [2] 0.049 | [3] 0.005 | [6] 0.001

MCOLN1 (UniProt Q9GZU1)
inactive: erlotinib 0.057 | [1] 0.182 | [2] 0.001 | [3] -0.055 | [4] -0.143 | [5] 0.027 | [6] 0.037 | IRAK-1-4 Inhibitor I -0.034

MFF isoform 2 (UniProt Q9GZY8)
inactive: erlotinib 0.006 | [1] -0.056 | [2] 0.021 | [3] -0.009 | [4] -0.014 | [5] -0.035 | [6] -0.005 | [7] 0.024 | [8] 0.037 | IRAK-1-4 Inhibitor I 0.018

MFSD8 (UniProt Q8NHS3)
inactive: erlotinib -0.079 | [1] 0.013 | [2] 0.019 | [3] 0.022 | [4] -0.028 | [5] -0.006 | [6] -0.056 | IRAK-1-4 Inhibitor I -0.015

MCM7 (UniProt P33993)
inactive: erlotinib 0.007 | [1] 0.025 | [2] -0.018 | [3] -0.002 | [4] 0.013 | [5] -0.004 | [6] 0.064 | [7] -0.004 | [8] -0.007 | IRAK-1-4 Inhibitor I -0.016

MCAM (UniProt P43121)
inactive: erlotinib -0.025 | [1] 0.012 | [2] 0.039 | [3] -0.024 | [4] 0.016 | [5] 0.018 | [6] -0.069 | [7] 0.008 | [8] 0.076 | IRAK-1-4 Inhibitor I 0.032

MELK (UniProt Q14680)
inactive: erlotinib 0.056 | [1] -0.077 | [2] 0.022 | [3] -0.002 | [5] 0.111 | [6] 0.022 | [7] 0.2 | [8] -0.192 | IRAK-1-4 Inhibitor I 0.017

MCM10 (UniProt Q7L590)
inactive: erlotinib 0.036 | [1] -0.079 | [2] -0.027 | [3] -0.042 | [4] -0.144 | [5] -0.025 | [6] 0.018 | IRAK-1-4 Inhibitor I -0.017
